Measured values reported in PubChem BioAssay AID1508600 (Functional Genomics Laboratory (NCATS/FGL), 2020).
Screen size: about 53,000 sequences; about 3,700 (7%) were called active.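 How the source made its calls: active means gene knockdowns whose robust z-score for IL-1 alpha signal is at least 2 or at most -2, so actives lie on both sides; inactive means the rest.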 The list shows a part of the results.

assay: Components of the Cytosolic LPS Sensing Pathway: Gene Identification via Genome-wide siRNA Screen; details: RAW264.7 macrophages, IL-1a HTRF, actives lie on both sides, screened at 100 nM (by protocol), cells primed 5 h with Pam3CSK4 first;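 further: robust z of the log signal after scaling to non-targeting control siRNA wells of the plate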
In short: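 IL-1a HTRF of supernatants after 24 hour LipidA transfection of Pam3CSK4-primed (5 hours) RAW264.7 cells, 48h post-siRNA transfection (100 nM). Scores: percent of plate negative-control median, then log-based robust z-score.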

Sequence	z-score
GGACCAAUAAACCUAGAACTT against Dact1	inactive: -1.23
CCGCACCAGGGAAAAUGCUTT against Crym	inactive: -1.45
GGACUGUGGAUGAGUCCGUTT against Dnmbp	inactive: 0.689
GGUAGGAGGUAUUUCCCACTT against Shisa5	inactive: 0.197
GGAGGUGGAUGAAGUAUUUTT against Nudt8	inactive: -0.162
CCGUAUAGGUAGAUCCAGATT against Stmn1	inactive: -0.717
GCACCGUGUGACCAUGAACTT against Akt1	active: 3.96
GGAUUCAGACCACAAUACCTT against Klk4	inactive: 0.746
CCUGGACUGAGAAUAUAGCTT against 2610008E11Rik	inactive: -0.0107
GCUUUGUGAUGGAUUACUATT against Ccl4	inactive: 1.85
GCAAAACGGCUUUUGAAUGTT against Zfp454	inactive: -0.384
GGUACUAAGCACAAGACAATT against Zfp385a	inactive: 0.982
GGUUGUAAUGAGAAAGUGATT against H2-Ke6	inactive: 0.152
GGCUUGUGGAAAUUUUGGGTT against Paics	inactive: 0.908
CGAUUUAAACAUGGAAUUCTT against Ccny	inactive: 0.665
GGUUGCACUUUUUCAUAGUTT against Bcl2l2	inactive: 0.97
CGUGUUUGAUCACUACUCUTT against Tnfaip8l2	inactive: -0.593
GCAAGAGUCUUGGCCCUCATT against Morn4	inactive: 0.534
CCCUCAACCAUUGUUCGAGTT against Rasal1	inactive: -0.328
CCUCAUUGUAGUCACCCUCTT against Olfr91	inactive: -1.44
GGUUAUUUUACAUGAGUACTT against Il15	inactive: -0.416
GGCAUUCAAACCUCUCGUGTT against Dcn	inactive: -0.921

Sequence	z-score
GGAACCCAACAUUGCCAAGTT against Ier3	inactive: -1.31
GGUCAGAACCCUAAAGACCTT against Tbcd	inactive: -0.425
GGCACAAUUAACAAGAAAATT against Pfn2	inactive: -0.746
GCAUACGUGUUCAAUGGUGTT against Ppef2	inactive: -0.541
GGCUCUGAGCUACAUCUUUTT against Trex2	inactive: -0.458
GGCCGGAGCUUACGAUUUUTT against Camk2d	inactive: 0.309
GGAGACAGUGGUAUUUUGATT against Birc5	inactive: 0.468
GCAUCCAUGCUAUGGAACCTT against Rhox8	inactive: 0.36
GGAAAUUUGGGUAGGAGUGTT against Atp5mpl	inactive: -1.91
GCUGUCCAGACAAACACUATT against Cd27	inactive: -0.602
GGAAAUCGAUUCUCAUGAUTT against St6gal2	inactive: 0.00146
CCUAGAGAACUUUCUUCUUTT against Olfr385	inactive: -0.0168
GCAAAAGUGUAUCAUGAUGTT against Olfr1052	active: -2.17
GGAGUUGAUUGAAAUCAUCTT against Atp5c1	inactive: 0.466
GGCCACAACAGAGAUUAAATT against Bank1	inactive: -0.304
GGGAUAUGAAAUCAUUUUCTT against Cyld	inactive: 0.819
CCAUGUUAUAUGAUAAGGGTT against Riox1	inactive: -1.17
CGGAGAGCCUUCCAUAUGATT against Ndufb8	inactive: -1.27
GGCAGAAUUACAUUUAACATT against Grik2	inactive: 0.702
GCCUCAAACCAUCAUACUUTT against Ppp1r13b	inactive: -0.00468
GCAGGGACUAUCAGAGUUCTT against D430018E03Rik	inactive: 0.589
GGUGGAGUUUAAACUUACATT against Atp4b	active: 5.64

Sequence	z-score
CCUACUUUAGUUCACUUUGTT against Tsnax	inactive: 0.836
GCACUUACAUUGACGAACUTT against Olfr985	inactive: 1.78
GGCUGUACUAACUGUCGUUTT against Pdxdc1	inactive: -0.695
GGUAUGCAUUCCAGAAAUATT against Stox2	inactive: -0.391
GGGACAUCCGGAAUAUUUGTT against Exog	inactive: -1.01
GGAAGUUACUGUGAGAUAATT against Mtbp	inactive: 0.265
GGUCCAAAGAUAGAAGCCATT against Pramel13	inactive: 0.455
CGUGCUGUUUAAAAGCCGUTT against Mkrn3	inactive: 0.557
CGAUACGGAUGUUUUCUCUTT against Tspan18	inactive: -0.234
GGGCAGGUUGUCUUUCUACTT against Plpp1	inactive: 0.997
GGAAAAGACAAGAAAAGAUTT against Zc3h15	inactive: -0.22
GGGAGUAGAGAUCAAAGGCTT against Cfb	inactive: -0.0723
GGUAGUAGGAGUUUCCUACTT against 4933414I15Rik	inactive: 1.44
GCAAGAAAACCUUAGCUCATT against Trpm2	inactive: -0.518
CCUUGUUCAACAGUCAUGUTT against Snu13	inactive: 0.234
CCAUUUAUUCCCUCAACAUTT against Shoc2	inactive: 0.47
GGGUCUGAUUUUUUAAGGATT against Arpp19	inactive: -0.87
GGAACUCACUCUAUCUUUUTT against C5ar2	inactive: 0.236
CCUCUUGAGGUCUCGUCAATT against Fam221b	inactive: -0.0968
GCUGGCUAGAAUCUUACCCTT against Aph1c	inactive: 0.554
CGUGAGAAAGCCAAUCCCUTT against Gm9871	inactive: -1.48
GGAAAAUGGCAGAAAUGAATT against Vps26a	inactive: -1.97

Sequence	z-score
CGUUUGCCUGGUACCUUACTT against Fitm1	inactive: -0.32
GGAAAGACCAUUCUGUAUUTT against Vps37d	inactive: -1.54
GUUAAAAAGUGGAAUGCAGTT against Rbx1	inactive: -0.609
GGAAACCGAAUUCCAAGGGTT against Ddx25	inactive: 1.78
GGACAUUAGCCAACACAUCTT against Scp2d1	inactive: 1.17
CCUUCCAUCCGAUUUGAAGTT against Ell	inactive: -0.241
GGUUCCUCUGUAAAAAGAUTT against Defb13	inactive: -0.0112
CCUAUCAGUCUAUCAUGUATT against Kdr	inactive: 0.31
GGCAGACAGAAGAUAUUUGTT against Aknaos	inactive: -1.51
GCAGGAUACAAUGUAAAGCTT against Rab6a	inactive: -0.392
GGUUGUAGACUUUAUUCAATT against Ppm1g	inactive: 0.948
GCGUAUUUAUCAGAGUUCATT against Wdr78	inactive: 0.828
GCCUAAGGAGUUUCUGAUATT against Ly6k	inactive: -1.76
GCUACAGUUACUUAAAUGATT against Glipr1l2	inactive: -0.141
GGAAUGCUAUUCUCGGACUTT against Lrg1	inactive: 0.432
GGAAAGCAUCAUUGAAAACTT against Dkk1	inactive: 0.429
GGUCUAUGACAAGAAUUUUTT against Rdh7	inactive: 0.165
GGUAACCUGUACAAUUGACTT against Serpinb1c	inactive: -0.239
GAGCAUUGUCUACCUGGAATT against Vmn1r200	inactive: 0.519
GGCAGAAGAACUUUUCCAGTT against Capsl	inactive: 0.874
GAGACAAGGGUCGUCUAAUTT against Dusp13	inactive: 1.42
CCCUCAAGUCGCACCUUUUTT against Dgkk	inactive: 0.28

Sequence	z-score
GGCCAAGAUCAUGAUCACCTT against Cldn4	inactive: -0.314
GGUUCAAUAUGAAGUUGUUTT against Iqcf3	inactive: -0.896
GGCAUGAUAACUUGAAAUGTT against Dnah11	inactive: 0.97
GGCACUUCUUUCCAAGACGTT against Gbp7	inactive: -0.373
GGCUCUCAUCCAUCUCCUUTT against Olfr715	inactive: -1.79
GGAUGAAUGGUUUAUUGUUTT against Ecd	inactive: -0.903
GCCGUACUUUGUCUUUGACTT against Fam187b	inactive: -1.65
GGAACUAGCACAAUGGUUCTT against Alkbh5	inactive: 1.21
CGAUUUAAGGAUUUUUACCTT against Dcun1d1	inactive: 0.571
GGUAUACAAAUCAAAUGUCTT against Nufip1	inactive: -0.805
GGGAUUGAAUCAUAGUUAGTT against Ankrd42	inactive: 0.0447
GGAAAGCAAAAAGUUUCAGTT against Fam118b	inactive: -1.14
GCGGCUUAUGUCUCAAAUUTT against Gcdh	active: 2.34
GGAACUGGUGAAGCUCACUTT against Ublcp1	inactive: 0.304
CGAACAGAUCCGAAAAUCUTT against Antxrl	inactive: 1.8
GGUUCCUGUAUCACAUGCGTT against Hkdc1	inactive: -0.809
GCUUACCUCUAGAUACACUTT against Snrpd1	inactive: -1.61
GGUGCUGGCAACCUUUUGUTT against Masp1	inactive: 0.16
CCUUUGUGAUGGAUGUUUATT against Dexi	inactive: -0.0842

Given bar-delimited: part of the list above.
Sequence | z-score
GGAACUAGCACAAUGGUUCTT against Alkbh5 | inactive: 1.21
CGAUUUAAGGAUUUUUACCTT against Dcun1d1 | inactive: 0.571
GGUAUACAAAUCAAAUGUCTT against Nufip1 | inactive: -0.805
GGGAUUGAAUCAUAGUUAGTT against Ankrd42 | inactive: 0.0447
